{"sequences": {"note": "Amino acid sequences for entries named in this document (tags omitted). A change or cut given only in a name is not applied to a line headed by its entry.", "UniProt P11836": "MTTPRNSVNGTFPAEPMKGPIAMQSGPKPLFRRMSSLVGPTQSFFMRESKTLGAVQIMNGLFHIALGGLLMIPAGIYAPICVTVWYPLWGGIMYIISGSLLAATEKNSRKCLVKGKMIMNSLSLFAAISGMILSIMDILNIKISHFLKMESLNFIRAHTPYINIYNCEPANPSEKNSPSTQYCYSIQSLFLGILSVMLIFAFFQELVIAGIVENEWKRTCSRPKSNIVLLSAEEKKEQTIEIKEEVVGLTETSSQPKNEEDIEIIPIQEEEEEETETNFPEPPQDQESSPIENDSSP"}, "source": "patent US20090035322A1", "binders": {"B1": {"name": "3H7-6 (antibody, V domains shown)", "VH": "EVQLVESGGGLVQPGRSLRLSCAASGFTFYDYAMHWVRQAPGKGLEWVSGISWNSGYIGYADSVKGRFTISRDNAKNSLYLQMNSLRAEDTALYYCAKDNSYGKFYYGLDVWGQGTTVTVSS", "VL": "EIVMTQSPATLSVSPGERTTLSCRASQSVSSNLAWYLQKPGQAPRLLIYGASTRATGIPARFSGSGSGTEFILTISSLQSEDFAVYYCQQYNNWPITFGQGTRLEIK"}, "B2": {"name": "6B9-4 (antibody, V domains shown)", "VH": "EEQLVESGGDLVQPGRSLRLSCAASGFTFHDYTMHWVRQAPGKGLEWVSGISWNSGSIGYADSVKGRFTISRDNAKNSLYLQMNSLRIEDTALYYCAKDPSYGSGSYYYYYGMDVWGQGTTVTVSS", "VL": "EIVLTQSPATLSLSPGERATLSCRASQSVSSYLVWYQQRPGQAPRLLIYEASNRATGIPARFSGSGSGTDFTLTISSLESEDFAVYYCQQRSNWPLTFGGGTKVEIK"}, "B3": {"name": "2C11-4 (antibody, V domains shown)", "VH": "EVQLVESGGGLVQPGRSLRLSCAASGFTFRDYAMHWVRQGPGKGLEWVSGISWNTDYIGYADSVKGRFTISRDNAKNSLYLQMNSLRPEDTALYYCAKDARYGRDNYYGMDVWGQGTTVTVSS", "VL": "EIVLTQSPATLSLSPGERATLSCRASQSVSRYLAWYQQKPGQAPRLLIHDASNRATGIPARFSGSGSGTDFTLTITSLEPEDFVVYYCQQRSDWPITFGQGTRLEIK"}, "B4": {"name": "9C11-14 (antibody, V domains shown)", "VH": "QVQLVESGGDSVKPGGSLRLSCAASGFTFSDSYMTWIRQAPGKGLEWVSFISSSGSTIYYADSVKGRFTISRDNVKKSLYLQMNRLRAEDTAVYYCAREEPGNYVYYGMDVWGQGTTVTVSS", "VL": "EIVVTQSPATLSLSPGERATLSCRTSQTTTSYLAWYRQKPGQAPRLLIYDASNRAAGIPARFSGSGSGTDFTLTINSLEPEDFAVYYCQLRTNWITFGQGTRLEIK"}, "B5": {"name": "9H4-12 (antibody, V domains shown)", "VH": "EVQLVESGGGLVQPGRSLRLSCAASGFTFDDYAMHWVRQVPGKGLEWVSGISWNSGSIGYADSVKGRFTISRDNAKNSLYLQMNSLRAEDTALYYCAKDMGYGNYYHYGMDVWGQGTTVTVSS", "VL": "B3 VL with E1D, R31S, H49C, N53H, G57R, T76S, V84A, D93N"}, "B6": {"name": "10E3-17 (antibody, V domains shown)", "VH": "EVQLVESGGGLVQPGRSLRLSCAASGFTFRDYAMHWVRQVPGKGLEWVSGISWNRGTIGYADSVKGRFTISRDNAKNSLFLQMNSLRADDTALYYCAKDHYYGSGSPYGMDVWGQGTTVTVSS", "VL": "EIVLTQSPATLALSPGERATLSCRASQSVSKYLAWYQQKPGQAPRLLIYDASKRVTGIPGRLSGSGSGTDFTLTISSLEPEDFALYYCQQSSNWPITFGQGTRVEIK"}}, "target": "human CD20 (human) (UniProt P11836)", "assay": "flow cytometry, hCD20-transfected MG87 cells", "note": "Substitutions are numbered along the chain they refer to. These are yes or no findings as the source states them, for the method shown. Some results given as binding are weak or reduced against the parent protein; the word gives no strength."}
{"binder": "B1", "values": [{"measurement": "binding", "result": "binds"}]}
{"binder": "B2", "values": [{"measurement": "binding", "result": "binds"}]}
{"binder": "B3", "values": [{"measurement": "binding", "result": "binds"}]}
{"binder": "B4", "values": [{"measurement": "binding", "result": "binds"}]}
{"binder": "B5", "values": [{"measurement": "binding", "result": "binds"}]}
{"binder": "B6", "values": [{"measurement": "binding", "result": "binds"}]}
